These are yes or no findings as the source states them, for the method shown. Binding seen in cells or lysates may run through a third protein. Some results given as binding are weak or reduced against the parent protein; the word gives no strength.
Molecular target: T1, ATG9A (mouse (endogenous in adult mouse brain)) (UniProt Q68FE2)
T1 sequence: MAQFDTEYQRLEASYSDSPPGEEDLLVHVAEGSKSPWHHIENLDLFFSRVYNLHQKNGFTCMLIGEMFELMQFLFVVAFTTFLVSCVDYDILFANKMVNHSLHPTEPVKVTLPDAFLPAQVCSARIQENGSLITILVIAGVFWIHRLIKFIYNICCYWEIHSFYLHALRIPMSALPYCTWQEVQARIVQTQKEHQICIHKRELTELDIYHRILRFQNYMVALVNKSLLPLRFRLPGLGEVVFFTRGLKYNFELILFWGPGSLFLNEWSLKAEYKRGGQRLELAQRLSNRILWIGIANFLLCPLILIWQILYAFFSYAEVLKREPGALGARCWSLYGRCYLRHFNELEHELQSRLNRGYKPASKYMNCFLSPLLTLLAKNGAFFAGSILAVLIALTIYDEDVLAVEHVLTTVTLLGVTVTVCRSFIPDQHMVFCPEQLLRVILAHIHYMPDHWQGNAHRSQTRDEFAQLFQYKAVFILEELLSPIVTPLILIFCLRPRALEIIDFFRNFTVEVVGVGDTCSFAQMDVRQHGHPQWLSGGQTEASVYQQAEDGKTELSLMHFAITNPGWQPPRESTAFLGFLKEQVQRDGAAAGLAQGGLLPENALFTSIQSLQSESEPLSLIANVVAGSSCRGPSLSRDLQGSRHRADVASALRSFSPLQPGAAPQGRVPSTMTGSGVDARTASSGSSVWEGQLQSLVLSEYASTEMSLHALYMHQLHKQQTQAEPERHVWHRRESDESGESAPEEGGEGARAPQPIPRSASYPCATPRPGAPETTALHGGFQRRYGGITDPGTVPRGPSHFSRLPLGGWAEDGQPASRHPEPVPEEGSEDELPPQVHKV
Test: co-IP; endogenous proteins; 5 mg mouse brain lysate with 1 ug antibody in HEPES buffer (50 mM HEPES, 0.5% Triton X-100, 150 mM NaCl, 1 mM EDTA) for 12 h at 4°C; protein A agarose beads; rabbit IgG control with WT lysate; western blot

binding: binds
B1: adaptor-related protein complex AP-4, epsilon 1 (protein, UniProt Q80V94 1-1122)
chain: MSDMVERTLTALPGLFLQNQLGGPAASRAPFFSRLGGLIRGVTALSSKHEEEKLIQQELSSLKATVSAPTTTLKTMKECMVRLIYCEMLGYDASFGYIHAIKLAQQGNLLEKRVGYLAVSLFLHESHELLLLLVNTVVKDLQSTNLVEVCMALTVVSQIFPREMIPAVLPLIEDKLQHSKEIIRRKAVLALYKFYLIAPNQVQHIHTKFRKALCDRDVGVMAASLHIYLRMIKENASGYKDLTESFVTILKQVVGGKLPVEFSYHSVPAPWLQIQLLRILGLLGKDDERTSELMYDVLDESLRRAELNHNVTYAILFECVHTIYSIYPKSELLEKAAKCIGKFVLSPKINLKYLGLKALTYVIQQDPSLALQHQITIIECLDHPDPIIKRETLELLYRITNAQNVVVIVQKMLEYLHQSKEEHIIISLVGRIAELAEKYAPDNVWFIQTMNAVFSVGGDVMHPDILSNFLRLLAEGFDDETEDQQLRLYAVQSYLTLLDMENTFYPQRFLQVMSWVLGEYSYLLDKESPEEVITRLYKLLMSDSISSETKAWLFAAVTKLTPQAHSSPLVEKLIQEFTVSLNTCLRQHAFELKHLHENTELMKSLLQGAQNCEDIVADASLSFLDGFVAEGLSQGAAPYKPHHQRQEEQLSQEKVLNFEPYGLSFSSSGFTGRQSPAGISLGSDISGNSAETGLKETSSLKMEGIKKLWGKEGYLPKKESGTGDKPEASHVPAEGATVENVDQATTRKDQAQGHIPSTEEKEKQLLASSLFVGLGPENTVDLLGKADVVSHKFRRKSKLKVAQSDKTPSAPTAPCSALSLGSDVAGGDEDGLSAVDRGDGELSSELFRSESLSGPPSAEKLESVSLPVPSLFADNNMEVFNPPSSSATSTVKEETPECRHSGLVEICSNEAVSVSSYKVWRDDCLLVIWAVTSKTDSEFTDAQLEIFPVENFKIIEQPECSSPVIETERTKSFQYSVQMESPCIEGTLSGFIKYQMMDTHSVQLEFSMNLPLLDFIRPLKISTEDFGKLWLSFANDVKQTIKISEPGVALTSVLTELQQNLRLRVIDVIGNEGLLACKLLPSTPCVLHCRVHADAVALWFRSSSSVLSDYLSCHCQKVMQTS

— publication PMC6999640
